Consider two molecules from paper PMC2973838.

These are yes or no findings as the source states them, for the method shown. Binding seen in cells or lysates may run through a third protein. Some results given as binding are weak or reduced against the parent protein; the word gives no strength. Tags and fused reporters may be left off the sequences shown.

Experiment [1] concerns the target … CLOCK-ASSOCIATED 1 fused to YFP (CCA1-YFP) (Arabidopsis thaliana) (UniProt P92973). Nature of the experiment: co-IP; extracts of nine day-old CCA1-YFP-ox/CKB4-MYC-ox seedlings (LD, ZT3) in RIPA buffer; 4 h at 4°C with Protein G-Sepharose beads conjugated with anti-GFP; detection with anti-MYC.
The target of experiment [2] is CCA1 fused to the N-terminal fragment of YFP (CCA1-nYFP) (Arabidopsis thaliana) (UniProt P92973). Kind of experiment: split reporter; BiFC in stably over-expressing Arabidopsis plants; YFP N-terminal fragment (nucleotides 1-462) and C-terminal fragment (nucleotides 463-741); confocal microscopy of hypocotyl cells.
Experiment [3] concerns the target T1, TOC1 fused to the N-terminal fragment of YFP (TOC1-nYFP) (Arabidopsis thaliana) (UniProt Q9LKL2).
T1 sequence: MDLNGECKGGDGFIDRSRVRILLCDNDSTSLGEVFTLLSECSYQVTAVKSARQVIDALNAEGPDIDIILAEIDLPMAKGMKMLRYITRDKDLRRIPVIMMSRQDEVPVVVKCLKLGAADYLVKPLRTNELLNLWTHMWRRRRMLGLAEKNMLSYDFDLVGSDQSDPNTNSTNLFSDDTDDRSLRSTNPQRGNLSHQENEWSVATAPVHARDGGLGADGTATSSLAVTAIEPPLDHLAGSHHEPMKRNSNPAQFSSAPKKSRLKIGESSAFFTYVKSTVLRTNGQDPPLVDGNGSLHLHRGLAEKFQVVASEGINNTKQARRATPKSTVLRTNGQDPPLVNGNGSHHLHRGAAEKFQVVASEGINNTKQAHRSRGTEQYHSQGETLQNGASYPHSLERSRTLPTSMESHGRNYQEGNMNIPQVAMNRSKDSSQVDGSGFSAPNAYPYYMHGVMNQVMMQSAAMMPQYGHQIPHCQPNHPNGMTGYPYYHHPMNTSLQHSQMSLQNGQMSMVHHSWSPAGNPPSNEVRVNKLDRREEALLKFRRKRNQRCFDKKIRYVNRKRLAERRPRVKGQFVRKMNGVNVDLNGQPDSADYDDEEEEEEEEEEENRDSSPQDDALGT
The experiment is described as above.

B1: CK2 regulatory subunit CKB4 with MYC tag (CKB4-MYC) (protein, UniProt O80507 1-283)
chain: MYKDRSGGGIMGGGGSSRSEILGGAIDRKRINDALDKHLKKSSPSTSRVFTSKDKDSVPSTSTAKSQLHSRSPDVESDTDSEGSDVSGSEGDDTSWISWFCNLRGNEFFCEVDEDYIQDDFNLCGLSGQVPYYDYALDLILDVESSNGDMFTEEQHEMVESAAEMLYGLIHVRYILTTKGMAAMMEKYKNYDFGRCPRVFCCGQSCLPVGQSDIPRSSTVKIYCPKCEDIYYPRSKYQGNIDGAYFGTTFPHLFLMAYGNMKPQKPAQNYVPKIFGFKVHNKQ
In the case of B1, in experiment [1], the binding entry is on record as “binds”.

B2: CKB4 fused to the C-terminal fragment of YFP (CKB4-cYFP) (protein, UniProt O80507 1-283)
chain: B1 chain
Consider B2, for which the binding entry in experiment [2] is given as “binds”; in experiment [3] it was “no binding”.
